According to ChEMBL document CHEMBL1121902 (J Med Chem, 1981):

How the values were obtained:
Conditions in all cases: Canis lupus familiaris, read-out: pA2 app (converted)
Canis familiaris [1] = assay: Compound was tested for its ability to block isoproterenol-induced contractile force in anesthetized dogs.
Canis familiaris [2] = assay: Compound was tested for its ability to block isoproterenol-induced increases in heart rate(HR) in anesthetized dogs.
Canis familiaris [3] = assay: Compound was tested for its ability to block isoproterenol-induced vasodilation in anesthetized dogs.

For `CC(C)NCC(O)COc1cccc2ccccc12` (stereo not drawn) [PROPRANOLOL], the Kb (Canis familiaris [1]) was 25.1 nM, the Kb (Canis familiaris [2]) was 37.2 nM and the Kb (Canis familiaris [3]) was 11.2 nM.
